Among the data in publication doi:10.1101/2021.02.02.429436 are binding values, retold here.

Results are given in words; binding and its absence hold for the method and conditions named. In cells and extracts the contact can be indirect. Binding can be weak; no strength is given. Tags and fused reporters may be left off the sequences shown.

The assay concerns the target embryonic PABP (ePABP) (X. laevis (endogenous in oocytes)). Put plainly: RNA co-immunoprecipitation.

B1: MS2-DAZL (murine DAZL fused to the phage MS2 coat protein) (protein, UniProt Q64368 1-298)
chain: MSATTSEAPNSAVSREASTQSSSATTSQGYVLPEGKIMPNTVFVGGIDVRMDETEIRSFFARYGSVKEVKIITDRTGVSKGYGFVSFYNDVDVQKIVESQINFHGKKLKLGPAIRKQNLCTYHVQPRPLIFNPPPPPQFQSVWSSPNAETYMQPPTMMNPITQYVQAYPPYPSSPVQVITGYQLPVYNYQMPPQWPAGEQRSYVIPPAYTTVNYHCSEVDPGADILPNECSVHDAAPASGNGPQKKSVDRSIQTVVSCLFNPENRLRNSLVTQDDYFKDKRVHHFRRSRAVLKSDHLC
On to B1, for which the binding entry is “binds”.
